Test results reported in the supplement of paper PMC10849652.
The list shows a part of the results. Residues, ends and D or L forms follow the SMILES beside them. *: point of attachment. Cbz = O=C(OCc1ccccc1)*

Amino acid sequences for entries named in this document (tags omitted). A change or cut given only in a name is not applied to a line headed by its entry.
UniProt P55036: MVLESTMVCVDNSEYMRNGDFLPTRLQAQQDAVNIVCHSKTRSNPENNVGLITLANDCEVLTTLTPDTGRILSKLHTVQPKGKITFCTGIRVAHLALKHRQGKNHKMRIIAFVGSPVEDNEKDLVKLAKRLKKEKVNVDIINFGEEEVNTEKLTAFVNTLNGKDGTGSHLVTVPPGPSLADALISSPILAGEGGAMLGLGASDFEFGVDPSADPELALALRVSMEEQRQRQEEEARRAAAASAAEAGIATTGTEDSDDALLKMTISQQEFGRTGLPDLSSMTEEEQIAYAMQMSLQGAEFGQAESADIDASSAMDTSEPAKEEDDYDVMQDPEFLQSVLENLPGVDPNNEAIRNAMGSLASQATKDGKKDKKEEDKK
UniProt Q13308: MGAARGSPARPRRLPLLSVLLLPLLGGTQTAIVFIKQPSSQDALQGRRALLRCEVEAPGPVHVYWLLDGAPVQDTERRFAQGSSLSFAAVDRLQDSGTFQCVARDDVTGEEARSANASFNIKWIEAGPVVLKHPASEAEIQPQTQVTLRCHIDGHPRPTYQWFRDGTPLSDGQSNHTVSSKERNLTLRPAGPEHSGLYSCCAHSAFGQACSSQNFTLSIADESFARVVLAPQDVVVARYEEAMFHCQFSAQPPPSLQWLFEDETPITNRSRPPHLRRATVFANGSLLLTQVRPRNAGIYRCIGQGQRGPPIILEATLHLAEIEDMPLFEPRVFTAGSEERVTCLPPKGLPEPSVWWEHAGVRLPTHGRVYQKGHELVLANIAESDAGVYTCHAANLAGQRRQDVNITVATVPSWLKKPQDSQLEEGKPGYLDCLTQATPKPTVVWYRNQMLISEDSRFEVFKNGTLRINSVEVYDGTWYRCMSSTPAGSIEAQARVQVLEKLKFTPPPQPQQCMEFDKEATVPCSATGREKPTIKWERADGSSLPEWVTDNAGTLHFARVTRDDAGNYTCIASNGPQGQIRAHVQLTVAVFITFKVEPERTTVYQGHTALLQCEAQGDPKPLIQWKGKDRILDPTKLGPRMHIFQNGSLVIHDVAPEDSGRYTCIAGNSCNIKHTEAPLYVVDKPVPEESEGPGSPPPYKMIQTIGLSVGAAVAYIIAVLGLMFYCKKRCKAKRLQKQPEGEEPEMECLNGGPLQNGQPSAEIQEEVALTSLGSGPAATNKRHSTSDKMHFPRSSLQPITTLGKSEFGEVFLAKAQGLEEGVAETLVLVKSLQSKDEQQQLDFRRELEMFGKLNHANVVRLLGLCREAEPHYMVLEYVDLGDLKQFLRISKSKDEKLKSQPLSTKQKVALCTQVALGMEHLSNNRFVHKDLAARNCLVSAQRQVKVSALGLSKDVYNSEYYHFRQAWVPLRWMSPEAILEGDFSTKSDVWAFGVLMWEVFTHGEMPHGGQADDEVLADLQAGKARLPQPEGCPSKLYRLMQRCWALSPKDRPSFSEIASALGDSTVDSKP
UniProt P18031: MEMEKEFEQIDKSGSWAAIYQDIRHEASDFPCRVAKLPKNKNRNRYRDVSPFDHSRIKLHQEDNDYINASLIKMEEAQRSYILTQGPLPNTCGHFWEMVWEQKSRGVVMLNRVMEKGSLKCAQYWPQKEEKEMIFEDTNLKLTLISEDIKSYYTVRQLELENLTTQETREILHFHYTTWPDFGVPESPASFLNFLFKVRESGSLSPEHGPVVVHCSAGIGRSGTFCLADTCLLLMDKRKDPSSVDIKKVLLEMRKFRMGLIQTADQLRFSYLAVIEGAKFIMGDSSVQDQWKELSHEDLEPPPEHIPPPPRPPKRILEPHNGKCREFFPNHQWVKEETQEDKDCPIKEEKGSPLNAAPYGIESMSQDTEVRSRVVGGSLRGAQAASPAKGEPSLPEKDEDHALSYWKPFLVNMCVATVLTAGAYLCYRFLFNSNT
UniProt Q9P2B2: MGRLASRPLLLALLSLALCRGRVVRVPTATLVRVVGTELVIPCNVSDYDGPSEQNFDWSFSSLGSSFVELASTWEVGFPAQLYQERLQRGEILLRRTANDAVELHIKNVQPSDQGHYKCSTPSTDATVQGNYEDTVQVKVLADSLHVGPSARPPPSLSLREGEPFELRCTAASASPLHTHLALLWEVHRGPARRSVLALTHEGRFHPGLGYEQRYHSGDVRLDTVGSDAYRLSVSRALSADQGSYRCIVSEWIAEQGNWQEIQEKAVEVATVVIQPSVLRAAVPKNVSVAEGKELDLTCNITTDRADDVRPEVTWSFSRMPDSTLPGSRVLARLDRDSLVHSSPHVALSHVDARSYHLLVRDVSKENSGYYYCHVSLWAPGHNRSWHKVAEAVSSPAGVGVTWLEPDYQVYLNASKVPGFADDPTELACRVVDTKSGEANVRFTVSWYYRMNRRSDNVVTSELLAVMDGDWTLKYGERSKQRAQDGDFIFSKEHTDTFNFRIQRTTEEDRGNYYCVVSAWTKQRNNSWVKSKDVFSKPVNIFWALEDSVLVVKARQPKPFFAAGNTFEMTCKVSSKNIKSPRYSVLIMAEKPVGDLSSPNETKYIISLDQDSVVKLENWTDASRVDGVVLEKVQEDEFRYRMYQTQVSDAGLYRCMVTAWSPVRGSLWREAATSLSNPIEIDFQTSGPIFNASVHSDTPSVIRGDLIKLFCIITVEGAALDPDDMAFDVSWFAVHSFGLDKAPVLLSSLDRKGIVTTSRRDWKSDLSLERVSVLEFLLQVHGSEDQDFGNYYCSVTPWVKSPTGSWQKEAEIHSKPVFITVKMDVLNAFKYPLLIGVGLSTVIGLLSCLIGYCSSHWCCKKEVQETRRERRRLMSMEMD
UniProt O00233: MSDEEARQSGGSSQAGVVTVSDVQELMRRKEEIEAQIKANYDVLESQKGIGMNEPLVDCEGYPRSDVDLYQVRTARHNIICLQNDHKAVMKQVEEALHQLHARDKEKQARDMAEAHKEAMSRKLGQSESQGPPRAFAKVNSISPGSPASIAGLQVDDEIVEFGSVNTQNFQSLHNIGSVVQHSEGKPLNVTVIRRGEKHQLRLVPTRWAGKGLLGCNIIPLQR
UniProt P25789: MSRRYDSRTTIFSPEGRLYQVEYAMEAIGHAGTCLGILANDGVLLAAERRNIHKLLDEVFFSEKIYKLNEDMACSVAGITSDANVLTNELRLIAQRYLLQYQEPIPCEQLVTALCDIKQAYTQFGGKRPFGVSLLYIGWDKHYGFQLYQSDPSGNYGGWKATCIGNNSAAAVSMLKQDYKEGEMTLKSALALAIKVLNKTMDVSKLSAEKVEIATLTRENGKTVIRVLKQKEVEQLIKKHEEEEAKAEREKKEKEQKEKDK
UniProt P28070, whole entry, looked up: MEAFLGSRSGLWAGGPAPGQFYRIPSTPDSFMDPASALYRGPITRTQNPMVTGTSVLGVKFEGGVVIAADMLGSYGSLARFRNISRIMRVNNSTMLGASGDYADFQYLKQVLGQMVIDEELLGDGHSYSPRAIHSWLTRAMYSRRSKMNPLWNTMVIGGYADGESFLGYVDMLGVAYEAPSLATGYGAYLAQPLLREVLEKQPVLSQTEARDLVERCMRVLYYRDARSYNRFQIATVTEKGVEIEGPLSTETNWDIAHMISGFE
UniProt P48556: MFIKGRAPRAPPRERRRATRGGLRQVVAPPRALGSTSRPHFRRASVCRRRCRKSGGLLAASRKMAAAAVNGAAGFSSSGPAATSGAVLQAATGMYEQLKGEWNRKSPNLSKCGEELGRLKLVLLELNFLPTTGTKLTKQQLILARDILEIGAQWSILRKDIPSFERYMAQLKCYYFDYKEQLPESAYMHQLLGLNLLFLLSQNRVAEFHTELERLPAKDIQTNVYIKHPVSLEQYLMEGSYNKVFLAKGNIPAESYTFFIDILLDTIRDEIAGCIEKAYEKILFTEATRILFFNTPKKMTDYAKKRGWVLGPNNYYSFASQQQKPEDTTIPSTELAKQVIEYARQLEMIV
UniProt O00231, whole entry, looked up: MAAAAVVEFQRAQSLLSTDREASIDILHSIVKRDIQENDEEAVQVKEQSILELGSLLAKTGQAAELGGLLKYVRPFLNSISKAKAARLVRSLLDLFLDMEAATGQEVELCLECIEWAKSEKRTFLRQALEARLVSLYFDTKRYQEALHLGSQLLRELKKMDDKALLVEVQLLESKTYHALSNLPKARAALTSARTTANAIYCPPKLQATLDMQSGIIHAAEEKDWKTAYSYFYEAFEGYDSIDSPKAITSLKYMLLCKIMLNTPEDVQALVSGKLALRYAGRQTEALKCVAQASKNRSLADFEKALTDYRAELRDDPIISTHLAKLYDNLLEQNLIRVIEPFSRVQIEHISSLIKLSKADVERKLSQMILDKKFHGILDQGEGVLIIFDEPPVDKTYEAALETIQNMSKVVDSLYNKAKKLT
UniProt Q14997: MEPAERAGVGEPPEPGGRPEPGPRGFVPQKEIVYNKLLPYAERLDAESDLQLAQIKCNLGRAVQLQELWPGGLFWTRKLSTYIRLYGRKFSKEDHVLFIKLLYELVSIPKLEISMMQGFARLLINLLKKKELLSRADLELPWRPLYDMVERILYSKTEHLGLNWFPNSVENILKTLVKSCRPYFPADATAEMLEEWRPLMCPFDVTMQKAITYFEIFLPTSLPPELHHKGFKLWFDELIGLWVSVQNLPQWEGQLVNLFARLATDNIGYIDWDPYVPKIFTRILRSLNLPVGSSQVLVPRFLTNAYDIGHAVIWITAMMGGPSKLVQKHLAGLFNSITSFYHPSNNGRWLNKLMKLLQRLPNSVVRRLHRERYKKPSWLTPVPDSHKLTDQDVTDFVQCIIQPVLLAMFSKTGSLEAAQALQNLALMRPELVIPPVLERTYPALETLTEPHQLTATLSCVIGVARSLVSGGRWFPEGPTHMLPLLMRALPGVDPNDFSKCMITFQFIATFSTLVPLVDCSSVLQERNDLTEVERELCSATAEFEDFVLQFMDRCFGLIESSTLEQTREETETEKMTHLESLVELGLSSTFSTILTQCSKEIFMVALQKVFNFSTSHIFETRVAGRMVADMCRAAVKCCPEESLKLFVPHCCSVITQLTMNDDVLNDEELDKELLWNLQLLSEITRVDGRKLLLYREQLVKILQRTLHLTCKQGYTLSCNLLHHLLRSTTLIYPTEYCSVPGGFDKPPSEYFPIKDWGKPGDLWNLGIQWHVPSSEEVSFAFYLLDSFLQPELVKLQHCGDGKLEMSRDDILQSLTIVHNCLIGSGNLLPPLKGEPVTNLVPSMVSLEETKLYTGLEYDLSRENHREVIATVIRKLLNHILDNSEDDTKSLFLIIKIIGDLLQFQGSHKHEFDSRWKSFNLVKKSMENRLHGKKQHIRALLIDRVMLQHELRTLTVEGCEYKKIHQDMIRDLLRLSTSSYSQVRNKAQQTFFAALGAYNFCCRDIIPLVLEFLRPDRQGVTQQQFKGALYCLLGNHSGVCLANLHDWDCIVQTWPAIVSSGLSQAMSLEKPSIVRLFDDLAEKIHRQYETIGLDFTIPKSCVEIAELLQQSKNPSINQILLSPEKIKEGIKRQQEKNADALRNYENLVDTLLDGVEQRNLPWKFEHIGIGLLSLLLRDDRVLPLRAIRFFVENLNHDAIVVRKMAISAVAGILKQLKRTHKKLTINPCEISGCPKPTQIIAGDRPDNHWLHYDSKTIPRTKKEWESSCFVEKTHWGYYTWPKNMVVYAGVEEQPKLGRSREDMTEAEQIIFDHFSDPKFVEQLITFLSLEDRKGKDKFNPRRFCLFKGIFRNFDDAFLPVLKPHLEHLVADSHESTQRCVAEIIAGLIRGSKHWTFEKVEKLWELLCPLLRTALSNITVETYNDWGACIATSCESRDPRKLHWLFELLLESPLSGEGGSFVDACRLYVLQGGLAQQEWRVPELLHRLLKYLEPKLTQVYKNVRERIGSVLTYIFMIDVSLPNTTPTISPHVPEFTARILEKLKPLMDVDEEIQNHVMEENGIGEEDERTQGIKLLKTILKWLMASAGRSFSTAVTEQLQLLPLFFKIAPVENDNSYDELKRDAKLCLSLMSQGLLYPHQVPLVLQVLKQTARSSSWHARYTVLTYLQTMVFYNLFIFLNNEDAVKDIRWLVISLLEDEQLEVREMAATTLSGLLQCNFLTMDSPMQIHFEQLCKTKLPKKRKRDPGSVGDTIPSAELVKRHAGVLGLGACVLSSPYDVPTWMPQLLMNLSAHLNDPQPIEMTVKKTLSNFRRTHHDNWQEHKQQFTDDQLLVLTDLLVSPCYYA
UniProt P17980, whole entry, looked up: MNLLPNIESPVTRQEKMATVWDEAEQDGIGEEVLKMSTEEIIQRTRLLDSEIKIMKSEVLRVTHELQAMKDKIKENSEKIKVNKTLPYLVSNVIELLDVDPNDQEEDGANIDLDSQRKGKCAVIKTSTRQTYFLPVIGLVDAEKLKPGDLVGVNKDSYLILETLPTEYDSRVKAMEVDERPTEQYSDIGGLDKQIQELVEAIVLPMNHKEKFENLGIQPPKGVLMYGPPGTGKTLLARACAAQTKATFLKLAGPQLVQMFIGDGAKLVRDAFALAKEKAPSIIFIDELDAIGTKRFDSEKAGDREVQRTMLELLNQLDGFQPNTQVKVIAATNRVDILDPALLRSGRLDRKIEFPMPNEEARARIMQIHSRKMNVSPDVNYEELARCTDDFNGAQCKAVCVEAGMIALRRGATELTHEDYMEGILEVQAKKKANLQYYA

Assays:
Test in all cases: log2 fold change, soluble protein after heating vs DMSO (PISA); higher = thermal stabilisation; K562 cells, 10 uM, 30 min; active = over 0.2 and 3.5 SD of the protein, either way, in both replicates (recomputed)
erlotinib = compound: C#Cc1cccc(Nc2ncnc3cc(OCCOC)c(OCCOC)cc23)c1 [erlotinib]
Outline: (§1)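 Thermal stability values are relative to control samples and come from duplicates. They are expressed as log2 fold changes. For measurement, K562 cells (2×10^6 cells/mL) received 10 μM compound for 30 min, and aliquots were heated for 3 min over 48°C-58°C, pooled, and extracted at 4°C in PBS with 0.5% NP-40. Soluble protein, the supernatant after 21,000xg for 90 min, was quantified by TMTpro 16plex LC-MS/MS with equalised channel sums.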

[1] = compound: C/C(=N\NC(=O)C1=CC(=CC=C1)S(=O)(=O)N2CCOCC2)/C3=C(C=CC(=C3)Cl)O
Outline: as §1

[2] = compound: C1=CC(=C(C=C1Cl)C2=NC3=NC=CN=C3C(=N2)NC4=CC=NC=C4)F
Outline: as §1

[3] = compound: C1=CC(=CC=C1C2=NC3=C(N2)C=C(C=C3)C(=O)N)OC4=CC=C(C=C4)Cl
Outline: as §1

[4] = compound: C1=CC2=C(C=CC(=C2)/C=C\3/C(=O)NC(=NCC4=CC=CS4)S3)N=C1
Outline: as §1

[5] = compound: C1=CC2=NC=CN=C2C=C1/C=C/3\C(=O)NC(=O)S3
Outline: as §1

[6] = compound: C1=CC=C(C=C1)C2=NC(=C(N2)C3=CC=NC=C3)C4=CC(=C(C=C4)Cl)O
Outline: as §1

[7] = compound: C1=CC=C2C(=C1)C3=NNC4=CC=CC(=C43)C2=O
Outline: as §1

[8] = compound: C1CCN(C1)C(=O)NC2=CC=CC(=C2)NC3=NC=C(C(=N3)NCCC4=CN=CN4)Br
Outline: as §1

[9] = compound: C1CN(CCC1(CC2=CC=C(C=C2)Cl)N)C3=NC=NC4=C3C=CN4
Outline: as §1

IRAK-1-4 Inhibitor I = compound: C1COCCN1CCN2C3=CC=CC=C3N=C2NC(=O)C4=CC(=CC=C4)[N+](=O)[O-] [IRAK-1-4 Inhibitor I]
Outline: as §1

ibrutinib = compound: C=CC(=O)N1CCC[C@@H](n2nc(-c3ccc(Oc4ccccc4)cc3)c3c(N)ncnc32)C1 [ibrutinib]
Outline: as §1

[10] = compound: CC(=O)c1cnc2ccc(-c3cc(Cl)c(O)c(Cl)c3)nc2c1N[C@H]1CC[C@H](CN(C)C)CC1
Outline: as §1

ralimetinib = compound: CC(C)(C)Cn1c(N)nc2ccc(-c3[nH]c(C(C)(C)C)nc3-c3ccc(F)cc3)nc21 [ralimetinib]
Outline: as §1

[11] = compound: CC(C)(O)CC(=O)NCCn1ccc2ncnc(Nc3ccc(Oc4cccc(C(F)(F)F)c4)c(Cl)c3)c21
Outline: as §1

[12] = compound: CC(C)C1=C2N=C(C=C(N2N=C1)NCC3=CC=CC=C3)NCCCCCCN
Outline: as §1

[13] = compound: CC(C)C[C@@H](C=O)NC(=O)[C@H](CC(C)C)NC(=O)[C@H](CC(C)C)NC(=O)OCc1ccccc1
Outline: as §1

pinometostat = compound: CC(C)N(C[C@H]1O[C@@H](n2cnc3c(N)ncnc32)[C@H](O)[C@@H]1O)[C@H]1C[C@@H](CCc2nc3cc(C(C)(C)C)ccc3[nH]2)C1 [pinometostat]
Outline: as §1

[14] = compound: CC1=C(C(CC(=O)N1)C2=CC=C(C=C2)C(F)(F)F)C(=O)NC3=C(C=C4C(=C3)C=NN4)F
Outline: as §1

[15] = compound: CC1=C(C2=C(C=C1)C(=O)C3=CC=CC=C3N2CCCN)C
Outline: as §1

Row | Target | log2 fold change (erlotinib) | log2 fold change [1] | log2 fold change [2] | log2 fold change [3] | log2 fold change [4] | log2 fold change [5] | log2 fold change [6] | log2 fold change [7] | log2 fold change [8] | log2 fold change [9] | log2 fold change (IRAK-1-4 Inhibitor I) | log2 fold change (ibrutinib) | log2 fold change [10] | log2 fold change (ralimetinib) | log2 fold change [11] | log2 fold change [12] | log2 fold change [13] | log2 fold change (pinometostat) | log2 fold change [14] | log2 fold change [15]
1 | PSMD4 (UniProt P55036) | inactive: -0.065 | inactive: -0.06 | inactive: -0.038 | inactive: 0.029 | inactive: -0.036 | inactive: -0.062 | inactive: 0.016 | inactive: 0.036 | inactive: 0.02 | inactive: 0 | inactive: -0.005 | inactive: 0.004 | inactive: 0.064 | inactive: 0.012 | inactive: 0.053 | inactive: 0.062 | inactive: -0.131 | inactive: 0.02 | inactive: 0.031 | inactive: -0.044
2 | PTPN11 isoform 1 (UniProt Q06124) | inactive: -0.024 | inactive: 0.021 | inactive: 0.088 | inactive: 0.013 | inactive: 0.022 | inactive: 0.038 | inactive: -0.019 | inactive: -0.002 | inactive: -0.001 | inactive: 0.044 | inactive: -0.009 | inactive: -0.004 | inactive: -0.03 | inactive: -0.059 | inactive: -0.035 | inactive: 0.014 | inactive: 0.025 | inactive: -0.033 | inactive: -0.028 | inactive: 0.014
3 | PTK7 isoform 6 (UniProt Q13308) | inactive: -0.007 | inactive: -0.011 | inactive: 0.179 | inactive: -0.003 | inactive: 0.039 | inactive: 0.069 | inactive: -0.027 | inactive: -0.038 | inactive: -0.092 | inactive: 0.138 | inactive: -0.04 | inactive: 0.011 | inactive: -0.128 | inactive: -0.111 | inactive: -0.503 | inactive: 0.108 | inactive: 0.085 | inactive: 0.005 | inactive: -0.002 | inactive: -0.046
4 | PTP4A2 (UniProt Q12974) | inactive: -0.054 | inactive: 0.03 | inactive: 0.134 | inactive: 0.049 | inactive: 0.018 | inactive: -0.051 | inactive: 0.205 | inactive: -0.125 | inactive: -0.029 | inactive: -0.097 | inactive: 0.019 | inactive: 0.16 | inactive: 0.065 | inactive: 0.051 | inactive: -0.051 | inactive: 0.035 | inactive: -0.157 | inactive: -0.044 |  | inactive: -0.164
5 | PTPN1 (UniProt P18031) | inactive: 0.079 | inactive: 0.062 | inactive: -0.115 | inactive: -0.054 | inactive: 0.054 | inactive: 0 | inactive: -0.024 | inactive: 0.027 | inactive: -0.091 | inactive: -0.08 | inactive: -0.218 | inactive: -0.094 | inactive: -0.075 | inactive: 0.06 | inactive: -0.008 | inactive: -0.114 | inactive: 0.077 | inactive: 0.18 | inactive: -0.002 | inactive: 0.036
6 | PTGFRN (UniProt Q9P2B2) | inactive: 0.019 | inactive: -0.006 | inactive: 0.021 | inactive: 0 | inactive: -0.034 | inactive: 0.01 | inactive: 0.015 | inactive: -0.053 | inactive: -0.027 | inactive: 0.11 | inactive: 0.009 | inactive: 0.06 | inactive: -0.111 | inactive: -0.029 | inactive: -0.026 | active: 0.222 | inactive: 0.07 | inactive: 0.002 |  | inactive: 0.028
7 | PSMD9 (UniProt O00233) | inactive: 0.015 | inactive: 0.015 | inactive: 0.022 | inactive: -0.012 | inactive: -0.068 | inactive: 0.041 | inactive: 0.006 | inactive: 0.008 | inactive: 0.009 | inactive: 0.03 | inactive: 0.033 | inactive: -0.005 | inactive: -0.003 | inactive: -0.029 | inactive: 0.003 | inactive: 0.069 | inactive: -0.015 | inactive: -0.039 |  | inactive: -0.004
8 | PSMA4 (UniProt P25789) | inactive: -0.08 | inactive: -0.04 | inactive: 0.077 | inactive: 0.003 | inactive: -0.052 | inactive: 0.055 | inactive: -0.02 | inactive: 0.02 | inactive: 0.001 | inactive: 0.023 | inactive: -0.015 | inactive: -0.042 | inactive: 0.08 | inactive: 0.014 | inactive: 0.017 | inactive: 0.098 | inactive: -0.108 | inactive: -0.007 | inactive: 0.038 | inactive: -0.012
9 | PYGL (UniProt P06737) | inactive: -0.012 | inactive: -0.008 | inactive: 0.001 | inactive: 0.037 | inactive: 0.047 | inactive: -0.007 | inactive: -0.02 | inactive: 0.008 | inactive: -0.004 | inactive: 0.08 | inactive: 0.004 | inactive: 0.033 | inactive: -0.143 | inactive: -0.038 | inactive: 0.055 | inactive: 0.068 | inactive: -0.031 | inactive: -0.007 |  | inactive: 0.021
10 | PSMB4 (UniProt P28070) | inactive: -0.056 | inactive: -0.024 | inactive: -0.003 | inactive: 0.001 | inactive: -0.024 | inactive: -0.035 | inactive: -0.028 | inactive: 0.001 | inactive: 0.008 | inactive: 0.037 | inactive: -0.021 | inactive: 0.006 | inactive: 0.044 | inactive: -0.008 | inactive: 0.045 | inactive: 0.065 | inactive: -0.043 | inactive: 0.03 |  | inactive: 0.018
11 | PUS1 (UniProt Q9Y606) | inactive: 0.017 | inactive: 0.222 | inactive: -0.055 | inactive: 0.034 | inactive: -0.141 | inactive: -0.165 | inactive: -0.067 | inactive: -0.132 | inactive: 0.028 | inactive: -0.08 | inactive: -0.034 | inactive: 0.108 | inactive: 0.025 | inactive: 0.021 | inactive: 0 | inactive: -0.236 | inactive: 0.094 | inactive: 0.129 |  | inactive: -0.1
12 | PSMD8 (UniProt P48556) | inactive: -0.045 | inactive: -0.096 | inactive: -0.046 | inactive: 0.023 | inactive: -0.027 | inactive: -0.031 | inactive: 0.036 | inactive: 0.039 | inactive: 0.055 | inactive: -0.031 | inactive: -0.058 | inactive: -0.033 | inactive: 0.076 | inactive: -0.012 | inactive: 0.022 | inactive: 0.016 | inactive: -0.194 | inactive: 0.031 |  | inactive: -0.014
13 | PSMD11 (UniProt O00231) | inactive: -0.097 | inactive: -0.023 | inactive: -0.039 | inactive: 0.007 | inactive: -0.035 | inactive: -0.035 | inactive: 0.058 | inactive: 0.047 | inactive: -0.033 | inactive: -0.026 | inactive: -0.048 | inactive: 0 | inactive: 0.086 | inactive: 0.076 | inactive: 0 | inactive: -0.001 | active: -0.263 | inactive: 0.029 |  | inactive: 0.037
14 | PSME4 (UniProt Q14997) | inactive: -0.011 | inactive: 0.017 | inactive: -0.028 | inactive: 0.065 | inactive: 0.055 | inactive: 0.022 | inactive: -0.007 | inactive: 0.027 | inactive: 0.008 | inactive: 0.014 | inactive: 0.003 | inactive: -0.022 | inactive: -0.023 | inactive: -0.024 | inactive: -0.097 | inactive: -0.043 | active: 0.271 | inactive: 0.068 |  | inactive: 0.105
15 | PSMC3 (UniProt P17980) | inactive: -0.039 | inactive: -0.107 | inactive: -0.037 | inactive: 0.008 | inactive: -0.059 | inactive: -0.025 | inactive: -0.002 | inactive: -0.001 | inactive: 0.026 | inactive: -0.004 | inactive: -0.041 | inactive: -0.021 | inactive: 0.023 | inactive: 0.016 | inactive: 0.007 | inactive: 0.048 | inactive: -0.213 | inactive: 0.025 |  | inactive: 0.023
16 | PSMD6 (UniProt Q15008) | inactive: -0.024 | inactive: -0.041 | inactive: -0.042 | inactive: 0.017 | inactive: -0.056 | inactive: -0.007 | inactive: 0.09 | inactive: 0.053 | inactive: 0.002 | inactive: 0.016 | inactive: -0.037 | inactive: -0.036 | inactive: 0.081 | inactive: 0.087 | inactive: 0.05 | inactive: 0.038 | active: -0.221 | inactive: 0.047 |  | inactive: 0.012

2 records picked at random from the list so far:
Row | Target | log2 fold change (erlotinib) | log2 fold change [1] | log2 fold change [2] | log2 fold change [3] | log2 fold change [4] | log2 fold change [5] | log2 fold change [6] | log2 fold change [7] | log2 fold change [8] | log2 fold change [9] | log2 fold change (IRAK-1-4 Inhibitor I) | log2 fold change (ibrutinib) | log2 fold change [10] | log2 fold change (ralimetinib) | log2 fold change [11] | log2 fold change [12] | log2 fold change [13] | log2 fold change (pinometostat) | log2 fold change [14] | log2 fold change [15]
16 | PSMD6 (UniProt Q15008) | inactive: -0.024 | inactive: -0.041 | inactive: -0.042 | inactive: 0.017 | inactive: -0.056 | inactive: -0.007 | inactive: 0.09 | inactive: 0.053 | inactive: 0.002 | inactive: 0.016 | inactive: -0.037 | inactive: -0.036 | inactive: 0.081 | inactive: 0.087 | inactive: 0.05 | inactive: 0.038 | active: -0.221 | inactive: 0.047 |  | inactive: 0.012
14 | PSME4 (UniProt Q14997) | inactive: -0.011 | inactive: 0.017 | inactive: -0.028 | inactive: 0.065 | inactive: 0.055 | inactive: 0.022 | inactive: -0.007 | inactive: 0.027 | inactive: 0.008 | inactive: 0.014 | inactive: 0.003 | inactive: -0.022 | inactive: -0.023 | inactive: -0.024 | inactive: -0.097 | inactive: -0.043 | active: 0.271 | inactive: 0.068 |  | inactive: 0.105
